In patent publication US20120172578A1 (VLAAMS INTERUNIVERSITAIR INSTITUUT VOOR BIOTECHNOLOGIE, published 2012):
These are yes or no findings as the source states them, for the method shown. Some results given as binding are weak or reduced against the parent protein; the word gives no strength.

Protein sequences, listed by entry. Tags and fused reporters are not part of them. Residues count along the entry.
UniProt P01012, residues 2-386: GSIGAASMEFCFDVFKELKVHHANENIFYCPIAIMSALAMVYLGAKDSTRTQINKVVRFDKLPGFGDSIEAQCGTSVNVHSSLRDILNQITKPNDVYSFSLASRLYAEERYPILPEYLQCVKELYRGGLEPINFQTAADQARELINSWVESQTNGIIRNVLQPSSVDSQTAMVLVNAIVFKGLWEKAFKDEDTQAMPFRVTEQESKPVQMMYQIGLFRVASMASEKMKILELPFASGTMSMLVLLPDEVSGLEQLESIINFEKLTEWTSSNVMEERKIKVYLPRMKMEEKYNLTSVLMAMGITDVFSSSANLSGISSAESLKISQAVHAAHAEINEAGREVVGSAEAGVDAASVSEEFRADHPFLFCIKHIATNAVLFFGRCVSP

Tests used:
ovalbumine [1] = molecular target: ovalbumine (UniProt P01012); assay: column 'Antigen recognized by antibody'
ovalbumine [2] = molecular target: ovalbumine (UniProt P01012); assay: phage display panning; evaluated in ELISA

B1: B13 (VHH)
VHH: QVQLQASGGGLVQPGGSLRLSCAASGFDFMNVYMTWVRQAPGKGVEWVSGISVSGSITHYSESVKGRFTISRDNAKNMLYLQMNSLKSEDTARYYCARGGYNRYYGALGQGTLVTVSS
In the case of B1, the binding (ovalbumine [1]) is reported as “binds” and the binding (ovalbumine [2]) is reported as “binds”.

B2: 1DBOVA23 (VHH)
VHH: QVQLVESGGGSVQAGGSLIISCAASGFDFSNNYMTWVRQAPGKGVEWVSGISVSGSITHYTDSVKGRFTISRDNAKNTLYLQMNSLRSEDTARYYCGTGGYGRYYGTLGQGTQVTVSS
For B2, the binding (ovalbumine [1]) was “binds” and the binding (ovalbumine [2]) was “binds”.

B3: 1DBOVA43 (VHH)
VHH: QVQLVESGGGLVQPGGSLRLSCVGSGFTFSSYYISWVRQAPGKGLEWVSGISGSGATTSYTDSVKGRFTISRDNAKNTVYLQLNSLETEDSAMYYCRLGYGTPPGGVWPSQRQGTQVTVSS
For B3, the binding (ovalbumine [1]) was “binds” and the binding (ovalbumine [2]) was “binds”.

B4: A2-19 (VHH)
VHH: QVQLQASGGGLVQPGGSLKLSCVVSGFLFSNYAFSWVRQAPGKGLEWVSTIGTSSGYTNYAPSVKGRFTISRDNAKNTVYLQLNSLKTEDTAMYYCRRPGTDERGQGTQVTVSS
In the case of B4, the binding (ovalbumine [1]) is reported as “binds” and the binding (ovalbumine [2]) is reported as “binds”.

B5: A4-17 (VHH)
VHH: QVQLQASGGGLVQPGGSLRLSCAASGFDFSNVYMTWVRQAPGKGVEWVSGISVSGSITHYSDSVKDRFTISRDNAKNTLYLQMNSLKSEDTARYYCARGGYNTYSGALGQGTQVTVSS
With B5 the binding (ovalbumine [1]) was “binds” and the binding (ovalbumine [2]) was “binds”.

B6: B368 (VHH)
VHH: VQLVESGGGSVQAGGSLILSCTASGLPYKSYCMGWFRQAAGKEPEGVATINSGTGSKFYTDSVKGRFTISLDNDNNRVYLEMSSLKPEDTATYYCAAGQRHSCGYVLKNTDGWTHRAQGTQVTVSS
For B6, the binding (ovalbumine [1]) was “binds” and the binding (ovalbumine [2]) was “binds”.
